Among the data in PubChem BioAssay AID200 (DTP/NCI, 2004) are T/C and survivor count values, retold here.

The structures appear in SMILES notation. The list is a part of this screen's results and no random one: it is rich in T/C values a quarter to a half above the control, in often repeated tests (any T/C) and in doses without a T/C. Further doses and runs are listed elsewhere. T/C gives the treated animals as a percentage of the vehicle group. Some entries give survivors of the animals treated and no T/C: the source holds a T/C of zero for them, seemingly a mark for toxic or unscored doses. Some survivor counts are full or nearly so, which does not show that the dose was tolerated: the source hardly ever lists a survival T/C far under the control, and the zero likely stands for such cases as well. Counts of survivors are from the toxicity check (mostly the fifth day) where no day follows; animals may have died later. Schedules are NCI's codes, read here as Q, the interval in days (D) or hours (H), X, the number of doses. Brackets with × say how often a value occurs here. Some entries were tested several times; the values are given in rising order. For survival time, this PubChem deposit counts one and a half times the control or more as active, and values a quarter to a half above the control carry no call in these data; other NCI protocols may use other cut-offs. Some T/C values carry the count of animals alive at the toxicity check (mostly the fifth day); without a count, all were alive then.

This experiment has as its system B6C3F1 mice, B16 melanoma ip, median survival T/C. The experiment in a line: NCI In Vivo Anticancer Drug Screen. Data for tumor model B16 Melanoma (intraperitoneal) in B6C3F1 mice. The conditions noted are these: T/C endpoint: median survival time, higher T/C = longer survival. In short, it runs like this: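 Transplantable tumor in mice; treated vs vehicle control groups; survival or tumor size measured; value = T/C ratio.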

Where [1] appears, read: dose: 8.0 mg/kg/injection, schedule: Q01DX009 (ip), vehicle: Klucel (hydroxypropylcellulose) (HPC).
Setting [2] is: dose: 16.0 mg/kg/injection, schedule: Q01DX009 (ip), vehicle: Klucel (hydroxypropylcellulose) (HPC).
The mark [3] stands for this setting: dose: 400.0 mg/kg/injection, schedule: Q01DX009 (ip), vehicle: saline with Tween-80.
The mark [4] stands for this setting: dose: 400.0 mg/kg/injection, schedule: Q01DX009 (ip), vehicle: saline.
Setting [5] is: dose: 100.0 mg/kg/injection, schedule: Q01DX009 (ip), vehicle: saline.
Setting [6] is: dose: 50.0 mg/kg/injection, schedule: Q01DX009 (ip), vehicle: Klucel (hydroxypropylcellulose) (HPC).
The mark [7] stands for this setting: dose: 400.0 mg/kg/injection, schedule: Q01DX009 (ip), vehicle: Klucel (hydroxypropylcellulose) (HPC).

With `CC1CCC(NC(=O)N(CCCl)N=O)CC1` (configuration not stated), the T/C (dose: 1.0 mg/kg/injection, schedule: Q01DX009 (ip), vehicle: Klucel (hydroxypropylcellulose) (HPC)) is 107, 109, 110, 119 [9 of 10 alive], 122 % of control; the T/C (dose: 2.0 mg/kg/injection, schedule: Q01DX009 (ip), vehicle: Klucel (hydroxypropylcellulose) (HPC)) was 109, 111, 113, 114, 116 % of control; the T/C (dose: 4.0 mg/kg/injection, schedule: Q01DX009 (ip), vehicle: Klucel (hydroxypropylcellulose) (HPC)) is 119 [9 of 10 alive], 122, 133, 141, 143 % of control; the T/C (dose: 5.0 mg/kg/injection, schedule: Q01DX005 (iv), vehicle: other) was 142 % of control; the T/C under setting [1] is 120, 144, 172, 197 % of control [9 of 10 alive]; the T/C (dose: 10.0 mg/kg/injection, schedule: Q01DX001 (ip), vehicle: other) is 126 % of control. For the same molecule, the T/C by setting is: (dose: 10.0 mg/kg/injection, schedule: Q01DX005 (iv), vehicle: other) 128 % of control; under setting [2], 104 and 151 % of control. Also, the survivor count is 10 of 10 under setting [1]; 10 of 10 and 9 of 9 under setting [2]; 10 of 10 (dose: 20.0 mg/kg/injection, schedule: Q01DX005 (ip), vehicle: other); 2 of 10 (dose: 20.0 mg/kg/injection, schedule: Q01DX005 (iv), vehicle: other); 9 of 10 (dose: 80.0 mg/kg/injection, schedule: Q01DX001 (ip), vehicle: other); 10 of 10 (dose: 80.0 mg/kg/injection, schedule: Q01DX001 (iv), vehicle: other).
As to `C=CCNC(=O)c1ccccc1SC(C)=O`, the survivor count by setting is: (dose: 50.0 mg/kg/injection, schedule: Q01DX009 (ip), vehicle: saline with Tween-80) 10 of 10; (dose: 800.0 mg/kg/injection, schedule: Q01DX009 (ip), vehicle: saline + Tween-80 + alcohol) 0 of 10 and 1 of 10; (dose: 800.0 mg/kg/injection, schedule: Q01DX009 (ip), vehicle: saline with Tween-80) 0 of 10. Besides, the T/C (dose: 200.0 mg/kg/injection, schedule: Q01DX009 (ip), vehicle: saline + Tween-80 + alcohol) is 132 % of control and the T/C (dose: 400.0 mg/kg/injection, schedule: Q01DX009 (ip), vehicle: saline + Tween-80 + alcohol) was 145 % of control [8 of 9 alive].
Consider `CC(/C=C/c1ccccc1)=Nc1ccccc1`, for which the survivor count under setting [3] is on record as 9 of 10.
Turning to `CC(=O)Oc1c(C)[nH]ccc1=O`, the survivor count runs as follows: under setting [4], 10 of 10; (dose: 800.0 mg/kg/injection, schedule: Q01DX009 (ip), vehicle: saline) 9 of 10.
In the case of `Oc1cc(O)cc(/C=C/c2ccc(O)c(O)c2)c1`, the T/C (dose: 50.0 mg/kg/injection, schedule: Q01DX009 (ip), vehicle: DMSO) is 125 % of control. Further, the survivor count reads like this: (dose: 200.0 mg/kg/injection, schedule: Q01DX009 (ip), vehicle: DMSO) 0 of 10; (dose: 400.0 mg/kg/injection, schedule: Q01DX009 (ip), vehicle: DMSO) 0 of 10.
In the case of `CCC(C)C(=O)OC1C(=O)OC2CC3C(C)=CC(=O)C(O)C3(C)C3C4(O)OCC23C1C(C)C4O` (configuration not stated), the T/C reads like this: (dose: 0.62 mg/kg/injection, schedule: Q01DX009 (ip), vehicle: saline) 137 % of control; (dose: 1.25 mg/kg/injection, schedule: Q01DX009 (ip), vehicle: saline) 125 % of control; (dose: 10.0 mg/kg/injection, schedule: Q01DX009 (ip), vehicle: saline) 132 % of control [8 of 10 alive].
`N=C1CCCS1`: the survivor count runs as follows: under setting [5], 9 of 10; (dose: 200.0 mg/kg/injection, schedule: Q01DX009 (ip), vehicle: saline) 0 of 10; under setting [4], 0 of 10.
As for `O=C(C#Cc1ccccc1)c1ccccc1`, the survivor count was 1 of 10 under setting [6] and 0 of 10 (dose: 100.0 mg/kg/injection, schedule: Q01DX009 (ip), vehicle: Klucel (hydroxypropylcellulose) (HPC)).
Take `CC(=O)/C=C\c1ccc(Cl)cc1`: the survivor count under setting [5] is 4 of 10.
With `Cc1c(N)nc(C(CC(N)=O)NCC(N)C(N)=O)nc1C(=O)NC(C(=O)NC(C)C(O)CC(=O)NC(C(=O)NC(OC1OC(C)C(N)C(O)C1O)C(O)c1nc(-c2nc(C(=O)NCCCC(N)CC(=O)NCCCNCCCCN)cs2)cs1)C(C)O)C(OC1OC(CO)C(O)C(O)C1OC1OC(CO)C(O)C(OC(N)=O)C1O)c1cnc[nH]1` (configuration not stated), the T/C is, setting by setting: (dose: 1.0 mg/kg/injection, schedule: Q01DX009 (ip), vehicle: saline) 128 % of control; (dose: 2.0 mg/kg/injection, schedule: Q01DX009 (ip), vehicle: saline) 125 % of control; (dose: 4.0 mg/kg/injection, schedule: Q01DX009 (ip), vehicle: saline) 144 % of control; (dose: 8.0 mg/kg/injection, schedule: Q01DX009 (ip), vehicle: saline) 137 % of control.
Consider `CC(C)NC(=O)OCc1c(COC(=O)NC(C)C)c(-c2ccc(Cl)c(Cl)c2)n2c1CC(OC(=O)CN(C)C)C2` (configuration not stated), for which the survivor count by setting is: (dose: 80.0 mg/kg/injection, schedule: Q01DX009 (ip), vehicle: distilled water + Tween-80) 10 of 10 (2×); (dose: 160.0 mg/kg/injection, schedule: Q01DX009 (ip), vehicle: distilled water + Tween-80) 8 of 10.
Take `COc1cc2cc(c1Cl)N1CC(O)C(C)(O)C(=O)NC(C)C(=O)OC(CC1=O)C1(C)OC1C(C)C1CC(O)(NC(=O)O1)C(OC)/C=C\C=C(\C)C2OC` (configuration not stated): the T/C runs as follows: (dose: 1.0 micrograms/kg/injection, schedule: Q01DX009 (ip), vehicle: distilled water + alcohol) 134 and 137 % of control; (dose: 2.0 micrograms/kg/injection, schedule: Q01DX009 (ip), vehicle: distilled water + alcohol) 147 % of control; (dose: 4.0 micrograms/kg/injection, schedule: Q01DX009 (ip), vehicle: distilled water + alcohol) 145 % of control. Also, where the note is “dose: 32.0 micrograms/kg/injection, schedule: Q01DX009 (ip), vehicle: distilled water + alcohol”, the survivor count was 10 of 10 and 9 of 9.
As for `CC(C)(C)NC(C1=CC(C)(C)c2ccccc2C1=O)c1ccccc1` (configuration not stated), the survivor count under setting [7] is 3 of 10.
Consider `Cc1c2cc(Cl)c3ccccc3c2c[n+]2ccccc12`, for which the survivor count (dose: 100.0 mg/kg/injection, schedule: Q01DX009 (ip), vehicle: saline with Tween-80) is on record as 10 of 10.
As for `Nc1ccc(C(=O)O)c(O)c1`, the T/C (dose: 4.7 mg/kg/injection, schedule: Q01DX009 (ip), vehicle: saline with Tween-80) is 132 % of control. For the same molecule, the survivor count is 10 of 10 (dose: 25.0 mg/kg/injection, schedule: Q01DX009 (ip), vehicle: Klucel (hydroxypropylcellulose) (HPC)); 9 of 10 under setting [6]; 9 of 10 under setting [7]; 8 of 10 (dose: 600.0 mg/kg/injection, schedule: Q01DX009 (ip), vehicle: saline with Tween-80).
`C=C(C)[C@]12CC(C)C34OC(/C=C\C=C\CCCCCCCCC)(O[C@@H]1[C@@H]3[C@@H]1O[C@]1(CO)[C@@H](O)[C@]1(O)C(=O)C(C)=C[C@@H]41)O2` (some centres not stated): the survivor count runs as follows: (dose: 0.75 mg/kg/injection, schedule: Q01DX009 (ip), vehicle: distilled water + alcohol) 4 of 10; (dose: 1.5 mg/kg/injection, schedule: Q01DX009 (ip), vehicle: distilled water + alcohol) 0 of 10; (dose: 3.0 mg/kg/injection, schedule: Q01DX009 (ip), vehicle: distilled water + alcohol) 0 of 10.
For `O=C(c1cccnc1)c1cc(-c2ccccn2)c(=O)n2ccccc12`, the survivor count is recorded as 10 of 10 (dose: 200.0 mg/kg/injection, schedule: Q01DX009 (ip), vehicle: saline with Tween-80) and 9 of 10 under setting [3].
Consider `N#CC(=C1SCS1)[N+](=O)[O-]`, for which, for the setting “dose: 12000.0 micrograms/kg/injection, schedule: Q01DX009 (ip), vehicle: saline with Tween-80”, the survivor count is listed as 8 of 10.
